For this test, the target named is T1, Stomatin-like protein 2 (STOML2) (human (endogenous in PANC1 and BxPC3)) (UniProt Q9UJZ1).
T1 sequence: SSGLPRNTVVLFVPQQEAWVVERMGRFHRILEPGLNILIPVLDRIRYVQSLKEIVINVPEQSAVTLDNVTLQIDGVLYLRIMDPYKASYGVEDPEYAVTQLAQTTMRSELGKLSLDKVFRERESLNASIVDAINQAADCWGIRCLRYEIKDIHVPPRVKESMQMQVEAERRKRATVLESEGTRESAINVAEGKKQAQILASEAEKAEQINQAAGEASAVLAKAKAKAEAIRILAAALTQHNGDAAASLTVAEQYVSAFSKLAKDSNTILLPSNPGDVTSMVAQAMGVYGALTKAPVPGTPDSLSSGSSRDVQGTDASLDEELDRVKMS
Description: co-IP; PANC1 and BxPC3 cells lysed in modified RIPA buffer; lysates mixed with protein A/G agarose bead-conjugated STOML2 antibody or IgG for 2 h at room temperature; Western blot. A general note: A western blot detects proteins with antibodies after separation by electrophoresis.

No constants are given. Whether binding was seen depends on the method and setting. Binding seen in cells or lysates may run through a third protein. Binding can be weak; no strength is given.

On to “PARL (presenilin associated rhomboid like) (human (endogenous in PANC1 and BxPC3)) (enzyme)”, for which the binding entry was “binds”.

(Values after paper PMC10008575.)
